About 6,100 (1.1%) of roughly 580,000 compounds were called active. Inconclusive results, whose numbers are uncertain, are shown with a selection of clear calls. Calls follow the shape of the dose curve; as a rule, active = well fitted inhibition curve with a large enough effect; inconclusive = small, poorly fitted or top-dose-only effect, or another doubt; inactive = no such curve, though single readings can be large or run the other way. A potency beside an inconclusive call is a rough fit, not a confirmed value.
Target: Polyunsaturated fatty acid lipoxygenase ALOX12 (Homo sapiens) (UniProt P18054)
Experiment: Primary qHTS assay for inhibitors of human arachidonate 12S-lipoxygenase (ALOX12): Round 2
Conditions: purified 12hLO, xylenol orange hydroperoxide absorbance; series mostly up to 108 µM
Procedure, shortened: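 Hydroperoxide product was detected by ferrous iron/xylenol orange as the 573 to 405 nm absorbance ratio. Arachidonic acid at 40 uM (final) was turned over for 30 min at room temperature by 150 nM human 12hLO, pH 7.0 Hepes buffer, after 15 min compound preincubation.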
Potency is read from the fitted curve at half-maximal effect.

Chains of the proteins cited; added tags and fusions are not shown. Lines headed by an entry give the natural chain unless they say otherwise; changes in a name come on top.
UniProt P18054: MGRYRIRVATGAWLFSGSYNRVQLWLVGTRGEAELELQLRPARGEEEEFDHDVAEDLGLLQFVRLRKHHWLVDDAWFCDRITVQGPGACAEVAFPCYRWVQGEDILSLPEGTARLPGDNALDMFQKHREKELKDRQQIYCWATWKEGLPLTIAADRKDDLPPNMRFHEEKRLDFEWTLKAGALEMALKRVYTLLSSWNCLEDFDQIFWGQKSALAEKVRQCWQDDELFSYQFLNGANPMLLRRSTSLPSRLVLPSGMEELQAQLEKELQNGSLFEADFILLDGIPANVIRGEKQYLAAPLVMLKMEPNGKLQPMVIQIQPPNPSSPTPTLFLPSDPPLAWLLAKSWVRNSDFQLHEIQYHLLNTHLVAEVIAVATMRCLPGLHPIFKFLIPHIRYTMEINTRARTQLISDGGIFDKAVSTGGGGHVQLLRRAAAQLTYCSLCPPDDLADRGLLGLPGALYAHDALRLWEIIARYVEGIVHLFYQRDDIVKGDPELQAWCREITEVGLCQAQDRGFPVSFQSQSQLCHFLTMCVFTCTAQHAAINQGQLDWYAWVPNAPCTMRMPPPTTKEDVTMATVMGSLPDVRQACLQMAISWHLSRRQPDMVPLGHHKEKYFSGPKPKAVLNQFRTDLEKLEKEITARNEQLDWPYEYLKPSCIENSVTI

SMILES	Potency
COc1ccc(C(CC(=O)N2CCCCC2)c2c(OC)cc(OC)c3c(-c4ccccc4)cc(=O)oc23)cc1 (centres undefined)	active: 39.8 µM
Cc1noc(C)c1C(=O)Nc1nccs1	inconclusive: 35.5 µM [inhibitor, single point]
COc1ccc(-c2cc3cc(OC)c(OC)cc3cn2)cc1OC	inconclusive: 100 µM [inhibitor, single point]
CCOC(=O)C1=C(C)NC(C)=C(C(=O)OCC)C1c1ccc(OC)cc1	inactive
O=Cc1cccc(OCc2ccc(Cl)cc2)c1	inactive
COc1ccccc1NS(=O)(=O)c1cccc(NC(=O)NCCCl)c1	inconclusive: 35.5 µM [inhibitor, full curve, poor fit]
O=S(=O)(NCCc1csc(-c2ccccc2)n1)c1cccnc1	inconclusive: 44.7 µM [inhibitor, partial curve, poor fit]
O=C(Nc1cccc(-c2nc3ccccc3[nH]2)c1)c1cccc(NC(=O)c2ccco2)c1	inconclusive: 56.2 µM [inhibitor, partial curve, poor fit]
Cc1ccc(S(=O)(=O)NCC(c2cccnc2)S(=O)(=O)c2cccs2)cc1 (centres undefined)	inconclusive: 56.2 µM [inhibitor, single point]
Cc1cc(SCC(=O)OCC(=O)N(C)C2CCS(=O)(=O)C2)c(C)cc1Br (centres undefined)	inactive
CCOc1cc(C=O)cc(Cl)c1OC	inconclusive: 126 µM [inhibitor, partial curve, poor fit]
Cc1cccc(NC(=S)Nn2cnnc2)c1C	inconclusive: 50.1 µM [inhibitor, partial curve, poor fit]
C/C=C(\C)C(=O)NCCN1C2=NC[C@H](Cc3ccc(O)cc3)N2C[C@@H]1Cc1ccc(OC)cc1	inconclusive: 126 µM [inhibitor, single point]
CC(C)CN(CC(C)C)CC(O)COc1ccccc1Br (centres undefined)	inconclusive: 20 µM [inhibitor, partial curve, poor fit]
CC1=C(C(N)=O)C(c2cccnc2)n2nc(SCc3ccccc3F)nc2N1 (centres undefined)	inactive
COc1ccc2c(c1)N(C[C@H](C)CN(C)C)c1ccccc1S2	inconclusive: 10 µM [inhibitor, partial curve, poor fit]
CC(=O)COc1ccc2c(C(F)(F)F)cc(=O)oc2c1	inconclusive: 100 µM [inhibitor, single point]
Cc1nc(C23CC4CC(CC(C4)C2)C3)co1	inconclusive: 11.2 µM [inhibitor, full curve]
C=CCNC(=O)/C(C#N)=C/c1ccccc1Cl	inconclusive: 50.1 µM [inhibitor, partial curve, poor fit]

Shown bar-delimited: part of the list above.
SMILES | Potency
CCOc1cc(C=O)cc(Cl)c1OC | inconclusive: 126 µM [inhibitor, partial curve, poor fit]
Cc1cccc(NC(=S)Nn2cnnc2)c1C | inconclusive: 50.1 µM [inhibitor, partial curve, poor fit]

— PubChem BioAssay AID1671190 (National Center for Advancing Translational Sciences (NCATS), 2021)
